Common to all, as to experiment: affinity purification with mass spectrometry
Assay [1] deals with UBN2-AVI (UniProt Q80WC1).
Assay [2] concerns the target UBN1-AVI (UniProt Q4G0F8).
In assay [3] the target is T1, UBN2-AVI, Q80WC1.
T1 chain: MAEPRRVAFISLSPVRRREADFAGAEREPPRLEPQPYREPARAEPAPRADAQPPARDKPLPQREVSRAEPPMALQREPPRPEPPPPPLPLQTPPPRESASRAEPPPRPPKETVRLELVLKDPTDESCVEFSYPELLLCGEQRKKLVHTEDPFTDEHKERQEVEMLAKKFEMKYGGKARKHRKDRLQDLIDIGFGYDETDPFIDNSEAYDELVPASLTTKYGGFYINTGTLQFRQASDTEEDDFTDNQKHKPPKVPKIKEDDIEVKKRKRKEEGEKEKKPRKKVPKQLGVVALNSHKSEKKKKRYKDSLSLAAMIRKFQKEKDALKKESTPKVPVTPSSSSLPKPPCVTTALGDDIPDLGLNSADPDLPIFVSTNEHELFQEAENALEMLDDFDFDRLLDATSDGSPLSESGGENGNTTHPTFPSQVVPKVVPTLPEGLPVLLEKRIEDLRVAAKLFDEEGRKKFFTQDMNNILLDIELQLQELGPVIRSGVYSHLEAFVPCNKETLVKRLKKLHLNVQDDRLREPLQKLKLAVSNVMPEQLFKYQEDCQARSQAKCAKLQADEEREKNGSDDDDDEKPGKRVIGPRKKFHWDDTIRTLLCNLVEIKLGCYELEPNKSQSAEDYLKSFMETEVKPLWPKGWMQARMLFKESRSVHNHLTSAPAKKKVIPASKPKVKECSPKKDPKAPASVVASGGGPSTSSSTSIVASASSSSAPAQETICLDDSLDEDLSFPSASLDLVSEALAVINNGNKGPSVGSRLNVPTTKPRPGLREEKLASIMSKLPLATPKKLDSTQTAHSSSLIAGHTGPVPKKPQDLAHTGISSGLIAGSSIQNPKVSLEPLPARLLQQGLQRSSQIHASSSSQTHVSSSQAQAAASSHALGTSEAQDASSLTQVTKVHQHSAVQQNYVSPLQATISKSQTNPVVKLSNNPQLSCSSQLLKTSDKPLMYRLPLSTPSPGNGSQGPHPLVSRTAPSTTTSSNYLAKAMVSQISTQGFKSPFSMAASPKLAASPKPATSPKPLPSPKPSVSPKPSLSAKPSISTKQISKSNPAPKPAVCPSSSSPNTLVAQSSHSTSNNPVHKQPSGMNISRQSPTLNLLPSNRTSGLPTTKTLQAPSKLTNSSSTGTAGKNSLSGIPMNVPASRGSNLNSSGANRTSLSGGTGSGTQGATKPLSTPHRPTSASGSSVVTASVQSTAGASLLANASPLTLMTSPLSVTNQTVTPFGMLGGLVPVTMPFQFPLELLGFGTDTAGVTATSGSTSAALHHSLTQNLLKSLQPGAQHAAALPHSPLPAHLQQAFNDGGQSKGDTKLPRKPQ
The settings on record: remark: other sources report otherwise.

Sequences of proteins named here, by UniProt entry; tags and fusion partners are left off.
UniProt Q61666: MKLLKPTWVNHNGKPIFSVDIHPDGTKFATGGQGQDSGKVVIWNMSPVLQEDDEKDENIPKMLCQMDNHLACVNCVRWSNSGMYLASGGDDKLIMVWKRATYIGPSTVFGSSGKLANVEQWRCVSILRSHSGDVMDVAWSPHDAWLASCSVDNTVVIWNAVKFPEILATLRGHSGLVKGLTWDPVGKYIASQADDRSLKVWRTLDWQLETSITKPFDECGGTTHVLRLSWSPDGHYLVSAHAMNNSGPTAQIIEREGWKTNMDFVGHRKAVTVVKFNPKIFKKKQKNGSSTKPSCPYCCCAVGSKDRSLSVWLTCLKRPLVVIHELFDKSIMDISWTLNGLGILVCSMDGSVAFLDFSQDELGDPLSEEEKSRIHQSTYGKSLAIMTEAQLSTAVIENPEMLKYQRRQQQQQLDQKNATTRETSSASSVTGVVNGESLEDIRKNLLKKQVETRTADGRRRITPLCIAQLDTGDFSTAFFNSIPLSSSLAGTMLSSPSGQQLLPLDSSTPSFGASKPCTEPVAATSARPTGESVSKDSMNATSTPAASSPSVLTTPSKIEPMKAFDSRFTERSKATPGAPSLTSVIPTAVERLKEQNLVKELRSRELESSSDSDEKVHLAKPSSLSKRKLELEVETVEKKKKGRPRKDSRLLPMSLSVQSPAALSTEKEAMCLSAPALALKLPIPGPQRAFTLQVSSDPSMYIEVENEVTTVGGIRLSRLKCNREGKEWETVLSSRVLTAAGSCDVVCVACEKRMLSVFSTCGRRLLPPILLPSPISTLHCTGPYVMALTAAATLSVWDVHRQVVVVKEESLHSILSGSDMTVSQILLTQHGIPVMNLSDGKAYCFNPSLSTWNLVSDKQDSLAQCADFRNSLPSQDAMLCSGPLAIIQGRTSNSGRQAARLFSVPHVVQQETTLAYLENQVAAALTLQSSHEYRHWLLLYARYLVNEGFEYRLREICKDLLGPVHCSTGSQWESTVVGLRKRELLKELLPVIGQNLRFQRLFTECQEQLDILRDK
UniProt Q63943: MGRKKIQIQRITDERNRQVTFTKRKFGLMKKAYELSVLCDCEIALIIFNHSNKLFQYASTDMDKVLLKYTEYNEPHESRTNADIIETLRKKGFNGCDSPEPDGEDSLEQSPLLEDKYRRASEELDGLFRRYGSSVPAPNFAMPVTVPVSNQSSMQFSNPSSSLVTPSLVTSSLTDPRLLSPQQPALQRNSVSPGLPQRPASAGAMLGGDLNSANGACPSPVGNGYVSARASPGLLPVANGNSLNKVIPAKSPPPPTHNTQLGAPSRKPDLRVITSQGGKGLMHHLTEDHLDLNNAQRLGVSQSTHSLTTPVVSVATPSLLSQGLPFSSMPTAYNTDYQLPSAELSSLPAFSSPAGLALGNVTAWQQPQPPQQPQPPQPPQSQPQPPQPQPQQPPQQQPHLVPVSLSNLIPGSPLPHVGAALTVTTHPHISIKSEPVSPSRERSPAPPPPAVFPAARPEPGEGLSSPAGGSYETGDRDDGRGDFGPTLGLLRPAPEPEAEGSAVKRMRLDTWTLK

Results are given in words; binding and its absence hold for the method and conditions named. In cells and extracts the contact can be indirect. A yes stands for co-enrichment or nearness to the bait. Other partners may have been found.

Take HIRA (from UniProt Q61666 1-1015): the binding result in assay [1] is “binds”.

Consider MEF2D (from UniProt Q63943 1-514), for which the binding entry in assay [2] is recorded as “binds”.

B1: ZNF639 (protein, UniProt Q99KZ6 1-485)
chain: MNEYPKKRKRKTLHPSRYSDSSGISRIADGVSGIFSDHCYSVCSMRQPDLKYFDNKDDDSDPETANDLPKFADGTKARNRNQSYLVPSPVLRILDHTVFSTEKSTEVEICDEECASPESVHQHTQEESPIEVHTSEDVPIAVEVHAISEDYDIEAENNSSESLQDQADEEPPAKLCKILDKGQALNVTAQQKWPLLRANSSGLYKCELCEFNSKYFSDLKQHVILKHKRTDSNVCRVCKESFSTNMLLIEHAKLHEEDPYICKYCDYKTVIFENLSQHIADTHFSDHLYWCEQCDVQFSSSSELYLHFQEHSRDEQYLCQFCEHETGDPEDLHSHVVNEHARRLIELSDKCGSGGHGQCSLLSKITFDKCKNFFVCQVCGFRSRLHTNVNRHVAIEHTKIFPHVCDDCGKGFSSMLEYCKHLNSHLSEGIYLCQYCEYSTGQIDDLKIHLDFKHSADLPHKCSECLMRFGNERDLLGHLQVHETT
For B1, in assay [1], the binding result is given as “binds”.

B2: UBN1, Q4G0F8 1-1135 (protein)
chain: MSEPHRVQFTSVPGSLNPAFLKKSRKEEVGGTEQHQDCEPAAAAVRITLTLFEPDHKRCPEFFYPELVKNIRGKVKGLHPGDKKKDVLDPFNDEEKERHKVEALARKFEEKYGGKKRRKDRIQDLIDMGYGYDESDSFIDNSEAYDELVPASLTTKYGGFYINSGTLQFRQASESEDDFIKEKKKKSPKKRKLKEGGEKIKKKKKDDTYDKEKKSKKSKFSKAGFTALNASKEKKKKKYSGSLSVREMLKKFQKEKEAQKKREEEHKPVAVSSIEAQGLRELEGTSDPLLSLFGSTSDNDLLQAATAMDSLTDLDLEQLLSESPEGSPFRDMDDGSDSLGVGLDQEFRQPSSFPEGLPIPLEKRVKELAQAARAAEGESKQKFFTQDINGILLDIEVQTRELTSQIRSGVFAYLASFLPCSKDALVKRARKLHLYEQGGRLKEPLQKLKDAIGRAMPEQVAKYQDECQAHTQAKVAKMLEEEKDKEQRERICSDEEEDEEKGGRRIMGPRKKFQWNDEIRELLCQVVKIKLESRDLERNSKAQAWEDCVKAFLDAEVKPLWPKGWMQARTLFKESRRGHGHLTSLLAKKKVIAPSKIKMKESSVKLDKKVSVPSGQHGGPTTLLSEHQGGGLNTGANSREHPSQATCGLTDSVSVTLEDSLDEDLVRNPASSVDAVSKELATLNSRAANSSEFTLPTPSKAPTEKVGGVLCTEEKRNFAKPSSSAPPPTNALQSPLNFLAEQALALGQSSQEKKPEGSGFKELSCQGPLSKGVPELHPSKAKHHNLPRTSHGPQAAAPVPGPQVKVFHAGTQQQKSFTPPSPFVNKLQGPKATSPQCHRSLLQLVKTAAKGQAFHATMPASSGSSPASSSSAHKTTASNSTTISHPAKLHPTSSVGPSYKNNPFAGSVSKHGASSSSPSPGGGAQVQSSVSGASLPGVQSPSAGQSASRAAPSSAVKKTPVTQKLTLVAPPGGPNGDSGGGTQGVAKLLTSSLKPAAVSSVTSSTSLPKGTGGAVLLSNTSSLSLLSSSYKSNNPKLPGAMNSNSLGIITQFPLHVLSFNADSSAKAGVSKDAIVTGPAPGTFHHGLSHSLLAGLHSSPPHTAPLPHAAVSTHVPQSLPDASQLHGKGPVVPRKL
Take B2: the binding result in assay [3] is “binds”.

Values taken from doi:10.1101/2020.12.03.409912.
